Article PMC3125211
No constants are given. Whether binding was seen depends on the method and setting. In cells and extracts the contact can be indirect. Some binding calls cover weakened binding; strength is not graded here.

The chains behind the UniProt entries cited, without tags or fusion partners. Residues count along the entry.
UniProt P09055, residues 21-798: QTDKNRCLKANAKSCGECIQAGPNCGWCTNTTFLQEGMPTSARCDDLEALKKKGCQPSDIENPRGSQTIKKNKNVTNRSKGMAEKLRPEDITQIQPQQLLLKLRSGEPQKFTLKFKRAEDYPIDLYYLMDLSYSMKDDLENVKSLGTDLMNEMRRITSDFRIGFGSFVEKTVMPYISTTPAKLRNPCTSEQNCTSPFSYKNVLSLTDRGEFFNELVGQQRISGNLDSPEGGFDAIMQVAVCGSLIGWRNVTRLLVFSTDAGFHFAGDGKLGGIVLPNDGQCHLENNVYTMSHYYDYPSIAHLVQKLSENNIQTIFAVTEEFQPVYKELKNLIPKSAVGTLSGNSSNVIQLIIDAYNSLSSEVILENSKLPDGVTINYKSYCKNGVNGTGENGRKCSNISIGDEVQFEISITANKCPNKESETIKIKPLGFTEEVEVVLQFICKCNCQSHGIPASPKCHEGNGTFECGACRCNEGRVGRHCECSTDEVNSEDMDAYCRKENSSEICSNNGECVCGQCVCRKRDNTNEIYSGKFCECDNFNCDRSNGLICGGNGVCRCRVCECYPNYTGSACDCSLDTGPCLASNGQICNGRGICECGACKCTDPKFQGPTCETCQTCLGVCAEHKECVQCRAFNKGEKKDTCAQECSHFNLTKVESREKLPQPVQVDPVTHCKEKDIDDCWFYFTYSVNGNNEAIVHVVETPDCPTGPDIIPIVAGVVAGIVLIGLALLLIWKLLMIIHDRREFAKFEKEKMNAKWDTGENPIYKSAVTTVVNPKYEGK
UniProt P10852: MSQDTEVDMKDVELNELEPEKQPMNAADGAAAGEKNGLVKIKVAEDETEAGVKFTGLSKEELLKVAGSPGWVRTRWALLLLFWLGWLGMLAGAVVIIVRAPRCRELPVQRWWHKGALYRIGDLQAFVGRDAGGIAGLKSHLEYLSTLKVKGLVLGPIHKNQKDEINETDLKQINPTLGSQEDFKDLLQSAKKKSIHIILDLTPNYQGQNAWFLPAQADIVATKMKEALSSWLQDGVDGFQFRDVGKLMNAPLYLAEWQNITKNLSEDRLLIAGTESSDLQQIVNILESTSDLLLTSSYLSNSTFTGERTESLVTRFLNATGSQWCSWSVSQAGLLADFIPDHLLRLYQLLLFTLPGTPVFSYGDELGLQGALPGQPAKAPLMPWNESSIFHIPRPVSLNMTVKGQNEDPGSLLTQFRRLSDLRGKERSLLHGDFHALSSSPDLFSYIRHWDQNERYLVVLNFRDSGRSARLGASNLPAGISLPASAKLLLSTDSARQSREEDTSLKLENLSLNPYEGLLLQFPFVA

Tests used:
[1] = biological target: FLAG-tagged integrin β1 (mouse) (UniProt P09055); assay: co-IP; lysate of 20 frog oocytes co-expressing FLAG-integrin β1 and CD98hc or ΔCD98hc-β geo; IP buffer (20 mM HEPES pH 7.5, 50 mM NaCl, 1% NP-40); ANTI-FLAG M2 affinity gel, 4 h; blots with anti-FLAG M2, anti-CD98hc N-20 or anti-β galactosidase pAb
[2] = biological target: endogenous integrin β1 of PST080 ES cells (mouse (endogenous in PST080 ES cells)) (UniProt P09055); assay: co-IP; 200 μg PST080 ES cell lysate in IP buffer; 4 μg anti-integrin β1 mAb 9EG7 or normal rat IgG with protein-G Sepharose, 4°C, 4 h; blots with anti-CD98hc N-20, anti-β galactosidase pAb or anti-integrin β1 pAb

Substance | binding [1] | binding [2]
wild type CD98 heavy chain (CD98hc, Slc3a2) expressed in frog oocytes (from UniProt P10852 1-526) | binds | 
endogenous CD98 heavy chain of PST080 ES cells (from UniProt P10852 1-526) |  | binds
